Measured values reported in paper PMC10156788, “Molecular architecture of the Gαi-bound TRPC5 ion channel” (Nature Communications, 2023).
Results are given in words; binding and its absence hold for the method and conditions named. For some of these results: In cells and extracts the contact can be indirect. Some results given as binding are weak or reduced against the parent protein; the word gives no strength. Blank lines part the entries; values can stand above or below the molecule they belong to.

Amino acid sequences for entries named in this document (tags omitted). A change or cut given only in a name is not applied to a line headed by its entry. Chains listed by the source or under a name are the forms on record and can include a tag or linker. Residues count along the entry.
human TRPC5 (amino acids 1 to 765, TRPC5EM) in lipid nanodiscs, EGFP and Twin-StrepII-tag removed (Q9UL62, residues 1-765): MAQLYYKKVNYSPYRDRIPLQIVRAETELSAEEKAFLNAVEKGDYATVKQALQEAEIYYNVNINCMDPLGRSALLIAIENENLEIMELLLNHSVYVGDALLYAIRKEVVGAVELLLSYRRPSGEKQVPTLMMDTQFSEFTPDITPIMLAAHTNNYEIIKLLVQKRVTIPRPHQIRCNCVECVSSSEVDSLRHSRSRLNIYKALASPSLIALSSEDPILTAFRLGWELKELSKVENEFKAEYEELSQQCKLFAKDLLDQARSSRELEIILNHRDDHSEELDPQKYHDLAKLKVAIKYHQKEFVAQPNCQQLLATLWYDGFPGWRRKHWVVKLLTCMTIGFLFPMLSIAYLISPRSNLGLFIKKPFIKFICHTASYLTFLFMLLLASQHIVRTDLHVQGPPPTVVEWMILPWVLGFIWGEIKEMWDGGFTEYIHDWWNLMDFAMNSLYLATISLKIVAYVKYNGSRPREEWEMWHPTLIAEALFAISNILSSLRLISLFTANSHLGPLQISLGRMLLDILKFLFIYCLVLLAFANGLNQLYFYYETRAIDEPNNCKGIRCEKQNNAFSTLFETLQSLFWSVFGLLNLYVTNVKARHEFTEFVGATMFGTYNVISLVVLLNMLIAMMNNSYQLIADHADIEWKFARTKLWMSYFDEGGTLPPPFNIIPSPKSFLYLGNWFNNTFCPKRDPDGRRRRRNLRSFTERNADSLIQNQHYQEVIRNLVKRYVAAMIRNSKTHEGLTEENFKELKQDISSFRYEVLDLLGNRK
ECFP-fused human TRPC5EM^IYY/AAA (TRPC5EM^IYY/AAA-ECFP) (Q9UL62, form named): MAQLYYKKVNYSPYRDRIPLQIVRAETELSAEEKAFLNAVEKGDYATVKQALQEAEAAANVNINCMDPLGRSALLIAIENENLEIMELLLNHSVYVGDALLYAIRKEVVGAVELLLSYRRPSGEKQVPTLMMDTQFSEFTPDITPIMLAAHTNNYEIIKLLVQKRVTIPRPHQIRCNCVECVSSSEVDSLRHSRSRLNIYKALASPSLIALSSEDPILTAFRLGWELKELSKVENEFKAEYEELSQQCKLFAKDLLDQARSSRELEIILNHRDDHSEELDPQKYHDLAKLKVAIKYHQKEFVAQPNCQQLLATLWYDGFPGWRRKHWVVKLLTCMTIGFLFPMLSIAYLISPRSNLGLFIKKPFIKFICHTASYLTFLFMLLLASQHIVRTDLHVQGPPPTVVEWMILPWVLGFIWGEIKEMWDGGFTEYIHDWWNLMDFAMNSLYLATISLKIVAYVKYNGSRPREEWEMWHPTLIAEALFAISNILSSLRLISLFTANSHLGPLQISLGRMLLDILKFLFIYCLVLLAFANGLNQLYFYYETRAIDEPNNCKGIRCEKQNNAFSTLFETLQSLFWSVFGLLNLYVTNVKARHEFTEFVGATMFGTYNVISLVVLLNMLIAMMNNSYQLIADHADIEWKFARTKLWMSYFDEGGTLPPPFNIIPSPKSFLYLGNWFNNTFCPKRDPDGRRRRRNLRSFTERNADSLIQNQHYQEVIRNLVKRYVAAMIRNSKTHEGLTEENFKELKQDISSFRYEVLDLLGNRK

What was measured:
[1] = biological target: ECFP-fused human TRPC5EM (TRPC5EM-ECFP) (human) (UniProt Q9UL62); assay: FRET or BRET; three-cube FRET (effective FRET efficiency, EEFF) in live HEK293T cells co-expressing ECFP-tagged TRPC5 and EYFP-tagged Gαi3^Q204L
[2] = biological target: ECFP-fused human TRPC5EM^IYY/AAA (TRPC5EM^IYY/AAA-ECFP) (human) (UniProt Q9UL62); assay: as above
[3] = biological target: human TRPC5 (amino acids 1 to 765, TRPC5EM) in lipid nanodiscs, EGFP and Twin-StrepII-tag removed (human) (UniProt Q9UL62); assay: cryo-EM structure; TRPC5EM in MSP2N2/soybean lipid nanodiscs, alone or mixed with GTP-activated N-myristoylated Gαi3^Q204L at Gα:TRPC5 monomer = 6:1; Buffer A (50 mM Tris-HCl pH 8.0, 150 mM NaCl, 1 mM DTT) with 5 μM GTP; 2.5 mM CaCl2 added before vitrification; no PIP2; both purified
[4] = biological target: human TRPC5 (amino acids 1 to 765, TRPC5EM) in lipid nanodiscs, EGFP and Twin-StrepII-tag removed (human) (UniProt Q9UL62); assay: SEC; Superose 6 10/300 GL in Buffer A with 5 μM GTP after overnight incubation at 4 °C of Gαi3 with nanodisc-reconstituted TRPC5 (6:1) and HRV-3C cleavage; peak fractions analysed by SDS-PAGE; both purified

binding [1]: binds | binding [2]: no binding
Molecule: EYFP-fused human Gαi3^Q204L (Gαi3-EYFP-Q204L) (from UniProt P08754 1-354)

binding [3]: binds | binding [4]: binds
B1: N-myristoylated human Gαi3^Q204L, GTP-activated (natural protein)
chain: TLSAEDKAAVERSKMIDRNLREDGEKAAKEVKLLLLGAGESGKSTIVKQMKIIHEDGYSEDECKQYKVVVYSNTIQSIIAIIRAMGRLKIDFGEAARADDARQLFVLAGSAEEGVMTPELAGVIKRLWRDGGVQACFSRSREYQLNDSASYYLNDLDRISQSNYIPTQQDVLRTRVKTTGIVETHFTFKDLYFKMFDVGGLRSERKKWIHCFEGVTAIIFCVALSDYDLVLAEDEEMNRMHESMKLFDSICNNKWFTETSIILFLNKKDLFEEKIKRSPLTICYPEYTGSNTYEEAAAYIQCQFEDLNRRKDTKEIYTHFTCATDTKNVQFVFDAVTDVIIKNNLKE
modifications: myristoylation at the N-terminal glycine
notes: hexa-histidine tag inserted between M119 and T120; Incubated with 1 mM GTP for 1 h at 30 °C before use; The His tag is internal and no cleavage is described; Myristoylation of the N-terminal glycine implies loss of the first methionine; also called myristoylated Gαi3^Q204L
